Assay results as given in PMC7819943, “Rice protein-binding microarrays: a tool to detect cis-acting elements near promoter regions in rice”.
This is one part of the list.

Target: T1, OsSMF1 (Oryza sativa, UniProt Q6ZLB0 1-436)
T1 sequence: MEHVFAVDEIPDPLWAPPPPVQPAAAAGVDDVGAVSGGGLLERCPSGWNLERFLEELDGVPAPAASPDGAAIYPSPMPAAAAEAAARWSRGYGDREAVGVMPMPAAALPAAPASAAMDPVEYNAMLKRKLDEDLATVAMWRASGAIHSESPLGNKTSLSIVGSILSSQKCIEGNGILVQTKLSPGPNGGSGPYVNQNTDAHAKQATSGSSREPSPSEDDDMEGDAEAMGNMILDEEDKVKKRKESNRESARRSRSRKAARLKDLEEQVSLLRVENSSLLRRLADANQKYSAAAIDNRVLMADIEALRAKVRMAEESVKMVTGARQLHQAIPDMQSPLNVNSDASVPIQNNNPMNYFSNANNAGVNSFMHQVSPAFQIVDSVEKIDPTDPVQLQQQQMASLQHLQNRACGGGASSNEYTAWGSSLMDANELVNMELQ
Assay: protein-binding microarray (RPBM); PBS, 2% BSA, 51.3 ng/ul salmon testes DNA, 50 uM zinc acetate, 200 nM TF, 25 C, 1 h; high values mean tight binding
Conditions: protein: recombinant; tags: N-terminal polyhistidine and DsRed monomer fusion (pET32a); chain copies: 2; label: CyDye5-dUTP incorporated in the synthesized complementary strand; 3' TTTTT single-stranded linker to array surface; dsDNA, one strand shown
In short: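 Transcription factors, each fused N-terminally to a polyhistidine tag and DsRed, were expressed in E. coli BL21-CodonPlus and purified on Ni–NTA. A custom Agilent array was made double-stranded by primer extension with Cy5-dUTP and blocked with 2% BSA. It was incubated with 200 nM protein in PBS, 2% BSA, salmon testes DNA and 50 µM zinc acetate at 25 °C for 1 h, then washed. The binding signal is per-feature fluorescence intensity (arbitrary units) read on an Axon 4000B scanner.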

Row | Sequence | binding signal
1 | GGATATGTATAACAATGTGGGTCAGCAATATTGAACTATGCGGAGTCACCTAGTGCAG | 3650 fluorescence intensity (a.u.)
2 | AATCGCCGCCCGCCACGTGTCGCCTTCCCTTGCACGCCATCGGAGTCACCTAGTGCAG | 17400 fluorescence intensity (a.u.)
3 | TGATGGTAATGGCATGACACTTAGGTTGTTATTTCTATTTCGGAGTCACCTAGTGCAG | 3170 fluorescence intensity (a.u.)
4 | TGTTCATTTTGAATATCTGTACATACTGCTGGGTTATGACCGGAGTCACCTAGTGCAG | 3440 fluorescence intensity (a.u.)
5 | TGCTGTGGTGTGGTGTGGTGTGAATTTTGTTGATTGGTCGCGGAGTCACCTAGTGCAG | 3980 fluorescence intensity (a.u.)
6 | CCCTCTCCTCTCTGTCGCCTCGCCACCACCATAGCTAATCCGGAGTCACCTAGTGCAG | 3150 fluorescence intensity (a.u.)
7 | AGTCTCAGATCTACTTGCGGCGGCGAAGGCTCGGGAGGGGCGGAGTCACCTAGTGCAG | 3530 fluorescence intensity (a.u.)
8 | GGCCTTGCCACGAGCCCACGAGAGGTTTGGTTGATGGGCCCGGAGTCACCTAGTGCAG | 46500 fluorescence intensity (a.u.)
9 | CTTCAGTCCCGGTTGGTAAGGCTCAGCCGGCCACGTGGCTCGGAGTCACCTAGTGCAG | 17200 fluorescence intensity (a.u.)
10 | ACATACATCATTACCGAATTTGTTGTCATCAGAATTGCATCGGAGTCACCTAGTGCAG | 3480 fluorescence intensity (a.u.)
11 | CCTGACCAAGCGGTTCGGCCGCAGCCACAGCCGCAGCGAACGGAGTCACCTAGTGCAG | 3190 fluorescence intensity (a.u.)
12 | CCGCATTTTAATGTATGACGTCATTGACTTTTCGATCAACCGGAGTCACCTAGTGCAG | 16500 fluorescence intensity (a.u.)
13 | CCAACACCATCGCATGAGTCATTTGTAGGGGCTTTTGCGCCGGAGTCACCTAGTGCAG | 3650 fluorescence intensity (a.u.)
14 | TTGCGTCGTACTATCATTGCATGTGATAAGCTGTACAGTGCGGAGTCACCTAGTGCAG | 3380 fluorescence intensity (a.u.)
15 | CAATTGCATGTCGTCATTACCTCTTCATCAGCAGGATTGGCGGAGTCACCTAGTGCAG | 3990 fluorescence intensity (a.u.)
16 | GATGCATGCCTTCTTGTCTGTCATACGTCTCGTGCAATCGCGGAGTCACCTAGTGCAG | 3990 fluorescence intensity (a.u.)
17 | CTGGACACGGAGGCCGCGGCGGCGGCGGTGGCGTGGGAAGCGGAGTCACCTAGTGCAG | 3160 fluorescence intensity (a.u.)
18 | ACCATCTCTCTCTCTCTCTCTGCATGCATATCTTCTCCTCCGGAGTCACCTAGTGCAG | 3210 fluorescence intensity (a.u.)
19 | AGTAGCAAAACCTGTTTGTAGAGGAAATTATTATAGTGTTCGGAGTCACCTAGTGCAG | 53700 fluorescence intensity (a.u.)
20 | TATAAGAGCAAGTTTAATAGTATAGCCAACTACTAGCTCCCGGAGTCACCTAGTGCAG | 11300 fluorescence intensity (a.u.)
21 | CTTTTGTCATTTCAACAGAATGATGATGACTTCACACCGTCGGAGTCACCTAGTGCAG | 4620 fluorescence intensity (a.u.)

Row | Sequence | binding signal
22 | CGTGTCATTGTCCAAAATGTCAAAGAAATATGGAACCGGACGGAGTCACCTAGTGCAG | 15200 fluorescence intensity (a.u.)
23 | TGGGCTGGGTGAGGGAGATGACCGCGATGGACGAAAGCGTCGGAGTCACCTAGTGCAG | 3170 fluorescence intensity (a.u.)
24 | AGGGTACTAGCGGAGTAGACAAGCTGGCATATATATGATGCGGAGTCACCTAGTGCAG | 3400 fluorescence intensity (a.u.)
25 | AATCAAATCTTAGCGATGTAGTGAAACAGGTCAGACGGAACGGAGTCACCTAGTGCAG | 3600 fluorescence intensity (a.u.)
26 | CACCTCTGCGCCCCTCGTCGCACCACCACCACCGAGTCATCGGAGTCACCTAGTGCAG | 4120 fluorescence intensity (a.u.)
27 | AAATTGCGACACCTGTCCAGGGTGGCCCTACTTAATTACGCGGAGTCACCTAGTGCAG | 3790 fluorescence intensity (a.u.)
28 | AAGGGAGAGGATGGGATGACGTGGCATCCTAACATGTGGGCGGAGTCACCTAGTGCAG | 27600 fluorescence intensity (a.u.)
29 | CAAGTTGATTGCGATGAGTTGTACAAAATTCCACACAAATCGGAGTCACCTAGTGCAG | 3250 fluorescence intensity (a.u.)
30 | ATATGGGGCCACGCTGTACAGCCACGTAGGACGGTCAATCCGGAGTCACCTAGTGCAG | 13700 fluorescence intensity (a.u.)
31 | TCGTCGTCGGCGACGAGGACAACTGCGGCGGCGGCGGCGGCGGAGTCACCTAGTGCAG | 3290 fluorescence intensity (a.u.)
32 | GGTGGCTAGCGTCCTCCTCCTCTTCTACGTGGCGGCGGCCCGGAGTCACCTAGTGCAG | 3690 fluorescence intensity (a.u.)
33 | AGAATATATTACTCGCCTTTTGACCTGTCCAACACAGTTGCGGAGTCACCTAGTGCAG | 3350 fluorescence intensity (a.u.)
34 | GACAGAGATCTCTACACACCTGGATGCGCCTCGATCAGAACGGAGTCACCTAGTGCAG | 3330 fluorescence intensity (a.u.)
35 | CCAAGAGGTTGGACCTCTTGCTAACTTTCCTCCAAAATCTCGGAGTCACCTAGTGCAG | 11300 fluorescence intensity (a.u.)
36 | AGAGGTGACCTCGGATAACGTGTAAAATCCGTGACACCTCCGGAGTCACCTAGTGCAG | 4960 fluorescence intensity (a.u.)
37 | AATTCTAATTTATATGGTAGATTTTAAAAGTTAAATTGGACGGAGTCACCTAGTGCAG | 31700 fluorescence intensity (a.u.)
38 | AGTAGAAATATAGCATTGCACACGTCTTCCGTACAAAGATCGGAGTCACCTAGTGCAG | 5700 fluorescence intensity (a.u.)
39 | ATCCCTCCCTCACGCAAGAAGCATCCCGATGACACACACGCGGAGTCACCTAGTGCAG | 3700 ± 557 fluorescence intensity (a.u.)
40 | AAAGCTGCAAATCTCCAAATTTCCAGCGACACACGCACGTCGGAGTCACCTAGTGCAG | 3400 fluorescence intensity (a.u.)
41 | GACAATTGCACAATACATACTGTATATAGCAAGCTTCGGTCGGAGTCACCTAGTGCAG | 3180 fluorescence intensity (a.u.)
42 | ATTACGGTATAACTTACATAAAACTTGTATTCAACTGCGCCGGAGTCACCTAGTGCAG | 15700 fluorescence intensity (a.u.)
